Measured values: article PMC9674349
Results are given in words; binding and its absence hold for the method and conditions named. Binding seen in cells or lysates may run through a third protein. These calls come from enrichment with a bait or labelling near it, and not all partners need be listed.

T1: gephyrin, native, in mouse brain (mouse (endogenous in brain)) (UniProt Q8BUV3)
T1 sequence: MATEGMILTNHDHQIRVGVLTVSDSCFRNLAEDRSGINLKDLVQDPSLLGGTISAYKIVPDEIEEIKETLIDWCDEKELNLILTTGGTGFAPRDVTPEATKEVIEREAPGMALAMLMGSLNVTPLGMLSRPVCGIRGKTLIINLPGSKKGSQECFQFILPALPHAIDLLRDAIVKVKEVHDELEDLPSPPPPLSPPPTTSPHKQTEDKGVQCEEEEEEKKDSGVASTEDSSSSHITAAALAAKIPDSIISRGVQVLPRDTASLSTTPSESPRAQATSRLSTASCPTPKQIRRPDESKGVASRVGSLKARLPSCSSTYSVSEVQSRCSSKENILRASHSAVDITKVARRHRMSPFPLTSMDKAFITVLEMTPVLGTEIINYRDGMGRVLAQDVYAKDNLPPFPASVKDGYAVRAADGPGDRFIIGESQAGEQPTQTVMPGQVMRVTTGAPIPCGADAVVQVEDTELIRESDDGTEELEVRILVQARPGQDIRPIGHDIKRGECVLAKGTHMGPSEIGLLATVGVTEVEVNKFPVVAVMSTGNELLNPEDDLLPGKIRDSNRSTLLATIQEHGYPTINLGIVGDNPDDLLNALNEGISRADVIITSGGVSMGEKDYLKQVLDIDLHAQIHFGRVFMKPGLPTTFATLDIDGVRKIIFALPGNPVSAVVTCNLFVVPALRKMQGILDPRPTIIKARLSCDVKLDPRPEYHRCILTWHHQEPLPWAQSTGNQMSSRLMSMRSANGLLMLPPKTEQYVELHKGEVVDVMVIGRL

T2: gephyrin, native, in mouse brain (mouse (endogenous in brain)), Q8BUV3
T2 chain: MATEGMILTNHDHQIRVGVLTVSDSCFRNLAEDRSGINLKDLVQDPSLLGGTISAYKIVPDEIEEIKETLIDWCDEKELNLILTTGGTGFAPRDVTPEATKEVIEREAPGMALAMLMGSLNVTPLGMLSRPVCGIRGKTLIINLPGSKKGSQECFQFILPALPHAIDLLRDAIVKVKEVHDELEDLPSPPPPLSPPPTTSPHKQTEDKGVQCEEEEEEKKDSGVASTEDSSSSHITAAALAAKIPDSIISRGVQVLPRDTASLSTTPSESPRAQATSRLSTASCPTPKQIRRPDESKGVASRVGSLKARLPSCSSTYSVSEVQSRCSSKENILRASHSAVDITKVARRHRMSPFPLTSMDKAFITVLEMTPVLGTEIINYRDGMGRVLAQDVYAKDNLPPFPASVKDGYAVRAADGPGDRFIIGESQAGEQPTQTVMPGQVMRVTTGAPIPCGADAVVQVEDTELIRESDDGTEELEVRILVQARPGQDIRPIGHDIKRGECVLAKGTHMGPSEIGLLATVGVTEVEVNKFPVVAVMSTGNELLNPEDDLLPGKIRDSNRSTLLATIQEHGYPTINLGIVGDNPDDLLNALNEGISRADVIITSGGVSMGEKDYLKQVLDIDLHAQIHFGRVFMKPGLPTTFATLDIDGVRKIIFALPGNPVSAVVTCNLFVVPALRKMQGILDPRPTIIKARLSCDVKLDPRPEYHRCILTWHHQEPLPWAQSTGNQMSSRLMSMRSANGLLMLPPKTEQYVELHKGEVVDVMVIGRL


Tests used:
[1] = target: T1, gephyrin, native, in mouse brain (mouse (endogenous in brain)); experiment: affinity purification with mass spectrometry; native gephyrin complexes precipitated from mouse cortex and hippocampus lysate with DARPin-hFc 27B3, 27F3, 27G2 or antibody 3B11 on Protein G magnetic beads; LC-MS/MS; against control DARPin-hFc E3_5 or control IgG
[2] = target: T2, gephyrin, native, in mouse brain (mouse …); experiment: as above; conditions: remark: other sources report otherwise

Binder	binding [1]	binding [2]
IQSEC3 (protein, UniProt Q3TES0 1-1195) MESLLENPVRAVLYLKELTAIVQNQQSLIHTQRQRIDELERRLDELSAENRSLWEHQQLLQAQPPPGLVPPPPSAPLPAPAVTAPAAAAAQEPLQDHGQLIPASPEPPLQHHGQLLAQPQPAPSSRVQTPQSPHQHPVAPGAIADKEKERPSSCCAAAGALLQHASPAALGKGVLSRRPENETVLHQFCCPAADTEQKPACSDLASQSDGSCAQAGGGMEDSVVAAVAAGRPSAHAPKAQAPELQQEEERPGAVGSPRAGPLRAASPGRQQPALATALCSHTPAASEYELSLDLKNKQIEMLEHKYGGHLVSRRAACTIQTAFRQYQLSKNFEKIRNSLLESRLPRRISLRKVRAPTAESLVAEKALLEGCGLLGLPLGRSPSLPPTFAGSLTELEDSFTEQVQSLAKSIDDALSTWSLKTMCSLQESGAYQLHQALHPSAGQPGLETEAAAREPESGPGSGDEAGGLPQGHSGTLMMAFRDVTVQIANQNISVSSSTALSVANCLGAQTAQATAEPAAAQAEQEDTADQEVSEVPASEQMDPPSEDSEAAESRAQSAQEPAVAQAVVEEAVATEAEEEEEGAKQAGKGAEAEGGDNSEQLSSSSASTKSAKSSSEASAAASKEALQAVILSLPRYHCENPASCRSPTLSTDTLRKRLYRIGLNLFNINPDKGIQFLISRGFIPDTPIGVAHFLLQRKGLSRQMIGEFLGNSKKQFNRDVLDCVVDEMDFSNMELDEALRKFQAHIRVQGEAQKVERLIEAFSQRYCMCNPEVVQQFHNPDTIFILAFAIILLNTDMYSPNIKPDRKMMLEDFIRNLRGVDDGADIPRELVVGIYERIQQKELKSNEDHVTYVTKVEKSIVGMKTVLSMPHRRLVCCSRLFEVTDVNKLQKQAAHQREVFLFNDLLVILKLCPKKKSSFTYTFCKAVGLLGMRFHLFENEYYSHGITLATPLSGSEKKQVLHFCALGSDEMQKFVEDLKESIAEVTELEQIRIEWELEKQQGTKTLSVRSAGAQGDPQSKQGSPTAKREAMAGEKAAESSGEVSIHNRLQTSQHSPKLGVERGAPAPSPPTSPPPLPPDPQPSPLREQPPPLPLPPPTPPGTLVQCQQIVKVIVLDKPCLARMEPLLSQALSCYASSSSDSCGSTPLRGPGSPVKVIHQPPLPPPPPPYNHPHQFCPPGSMLLRRRYSSGSRSLV	binds	–
GABAA receptor subunit GBRA1, P62812 28-455 (protein) QPSQDELKDNTTVFTRILDRLLDGYDNRLRPGLGERVTEVKTDIFVTSFGPVSDHDMEYTIDVFFRQSWKDERLKFKGPMTVLRLNNLMASKIWTPDTFFHNGKKSVAHNMTMPNKLLRITEDGTLLYTMRLTVRAECPMHLEDFPMDAHACPLKFGSYAYTRAEVVYEWTREPARSVVVAEDGSRLNQYDLLGQTVDSGIVQSSTGEYVVMTTHFHLKRKIGYFVIQTYLPCIMTVILSQVSFWLNRESVPARTVFGVTTVLTMTTLSISARNSLPKVAYATAMDWFIAVCYAFVFSALIEFATVNYFTKRGYAWDGKSVVPEKPKKVKDPLIKKNNTYAPTATSYTPNLARGDPGLATIAKSATIEPKEVKPETKPPEPKKTFNSVSKIDRLSRIAFPLLFGIFNLVYWATYLNREPQLKAPTPHQ	–	binds

Further lines, results first:

binding [1]	binding [2]	Binder
binds	–	collybistin (protein, UniProt Q3UTH8 1-516) MYDLITGDSIVSAEAVWDHVTMANRELAFKAGDVIKVLDASNKDWWWGQIDDEEGWFPASFVRLWVNQEDGVEEGPSDVQNGHLDPNSDCLCLGRPLQNRDQMRANVINEIMSTERHYIKHLKDICEGYLKQCRKRRDMFSDEQLKVIFGNIEDIYRFQMGFVRDLEKQYNNDDPHLSEIGPCFLEHQDGFWIYSEYCNNHLDACMELSKLMKDSRYQHFFEACRLLQQMIDIAIDGFLLTPVQKICKYPLQLAELLKYTAQDHSDYRYVAAALAVMRNVTQQINERKRRLENIDKIAQWQASVLDWEGEDILDRSSELIYTGEMAWIYQPYGRNQQRVFFLFDHQMVLCKKDLIRRDILYYKGRIDMDKYEVIDIEDGRDDDFNVSMKNAFKLHNKETEEVHLFFAKKLEEKIRWLRAFREERKMVQEDEKIGFEISENQKRQAAMTVRKASKQKGVNSARSVPPSYPPPQDPLNQGQYLVPDGIAQSQVFEFTEPKRSQSPFWQNFSRLTPFKK
binds	–	PURA (protein, UniProt P42669 1-321) MADRDSGSEQGGAALGSGGSLGHPGSGSGSGGGGGGGGGGGGSGGGGGAPGGLQHETQELASKRVDIQNKRFYLDVKQNAKGRFLKIAEVGAGGNKSRLTLSMSVAVEFRDYLGDFIEHYAQLGPSQPPDLAQAQDEPRRALKSEFLVRENRKYYMDLKENQRGRFLRIRQTVNRGPGLGSTQGQTIALPAQGLIEFRDALAKLIDDYGVEEEPAELPEGTSLTVDNKRFFFDVGSNKYGVFMRVSEVKPTYRNSITVPYKVWAKFGHTFCKYSEEMKKIQEKQREKRAACEQLHQQQQQQQEETTAATLLLQGEEEGEED
binds	–	PURB (protein, UniProt O35295 1-324) MADGDSGSERGGGGGGGGGPGGFQPAPRGGGGGGGGPGGEQETQELASKRLDIQNKRFYLDVKQNAKGRFLKIAEVGAGGSKSRLTLSMAVAAEFRDSLGDFIEHYAQLGPSSPEQLAAGAEEGGGPRRALKSEFLVRENRKYYLDLKENQRGRFLRIRQTVNRGGGGFGGGPGPGGLQSGQTIALPAQGLIEFRDALAKLIDDYGGDEDELAGGPGGGAGGPGGGLYGELPEGTSITVDSKRFFFDVGCNKYGVFLRVSEVKPSYRNAITVPFKAWGKFGGAFCRYADEMKEIQERQRDKLYERRGGGSGGGDESEGEEVDED
